Source: article PMC8147293, “Library of Selenocyanate and Diselenide Derivatives as In Vivo Antichagasic Compounds Targeting Trypanosoma cruzi Mitochondrion” (Pharmaceuticals, 2021)

Key:
Details in all cases: versus BZN
[1] = test system: epimastigotes of T. cruzi Arequipa strain; assay: Screening against extracellular epimastigotes (resazurin); type: cell-based, Trypanosoma cruzi
Method: Trypanocidal activity against epimastigotes of T. cruzi Arequipa strain (MHOM/Pe/2011/Arequipa, discrete typing unit V) was tested as previously described. In short, 5 × 10^5 epimastigotes·mL^−1 were treated by adding the tested compounds at a concentration range from 100 to 0.2 µM in 96-well microplates (200 µL·well^−1) for 48 h. Subsequently, resazurin sodium salt (Sigma-Aldrich) was added to be incubated for further 24 h. Finally, the absorbance was measured, and the trypanocidal activity was expressed as the IC50 (inhibitory concentration 50) using GraphPad Prism 6 software. Each compound concentration was tested in triplicate in three independent experiments.

[2] = test system: Trypanosoma cruzi intracellular amastigotes; assay: Screening against intracellular amastigotes in Vero cells (Giemsa counting); type: cell-based
Method: Trypanocidal activity against amastigotes was determined according to the literature reported previously. […]. […] Each compound concentration was tested in triplicate in four separate determinations.

[3] = test system: Trypanosoma cruzi bloodstream trypomastigotes (BTs); assay: Screening against bloodstream trypomastigotes (resazurin); type: cell-based
Method: 2 × 10^6 Bloodstream trypomastigotes (BTs), obtained by cardiac puncture from infected BALB/c mice as previously described, were treated by adding the tested compounds at a concentration range from 50 to 0.1 µM in 96-well microplates (200 µL·well^−1) at 37 °C. After 24 h of treatment, resazurin sodium salt (Sigma-Aldrich) was added to be incubated for further 4 h. Finally, trypanocidal activity was determined following the same procedure as described to assess the trypanocidal activity in the epimastigotes. Each compound concentration was tested in triplicate in three independent experiments.

SMILES	number of times that compounds exceed the reference drug SI, Epimast. (in brackets) [1]	number of times that compounds exceed the reference drug SI, Amast. (in brackets) [2]	number of times that compounds exceed the reference drug SI, Trypomast. (in brackets) [3]
Cc1ccc(S(=O)(=O)Nc2ccc([Se][Se]c3ccc(NS(=O)(=O)c4ccc(C)cc4)cc3)cc2)cc1 [compound 43]	3	2	3
O=S(=O)(Nc1ccc([Se][Se]c2ccc(NS(=O)(=O)c3ccc(-c4ccccc4)cc3)cc2)cc1)c1ccc(-c2ccccc2)cc1 [compound 46]	4	2	3
Cn1ccnc1S(=O)(=O)Nc1ccc([Se][Se]c2ccc(NS(=O)(=O)c3nccn3C)cc2)cc1 [compound 47]	2	2	2
